# Measured values reported in the supplement of paper PMC12595434, “Development of retinoid nuclear receptor pathway antagonists through targeting aldehyde dehydrogenase 1A3” (iScience, 2025).
# By UniProt entry, the sequences of proteins in these tests, tags left out. Where a name states a change or a piece, a line headed by the entry shows the natural chain unless it says otherwise.
# UniProt O43301: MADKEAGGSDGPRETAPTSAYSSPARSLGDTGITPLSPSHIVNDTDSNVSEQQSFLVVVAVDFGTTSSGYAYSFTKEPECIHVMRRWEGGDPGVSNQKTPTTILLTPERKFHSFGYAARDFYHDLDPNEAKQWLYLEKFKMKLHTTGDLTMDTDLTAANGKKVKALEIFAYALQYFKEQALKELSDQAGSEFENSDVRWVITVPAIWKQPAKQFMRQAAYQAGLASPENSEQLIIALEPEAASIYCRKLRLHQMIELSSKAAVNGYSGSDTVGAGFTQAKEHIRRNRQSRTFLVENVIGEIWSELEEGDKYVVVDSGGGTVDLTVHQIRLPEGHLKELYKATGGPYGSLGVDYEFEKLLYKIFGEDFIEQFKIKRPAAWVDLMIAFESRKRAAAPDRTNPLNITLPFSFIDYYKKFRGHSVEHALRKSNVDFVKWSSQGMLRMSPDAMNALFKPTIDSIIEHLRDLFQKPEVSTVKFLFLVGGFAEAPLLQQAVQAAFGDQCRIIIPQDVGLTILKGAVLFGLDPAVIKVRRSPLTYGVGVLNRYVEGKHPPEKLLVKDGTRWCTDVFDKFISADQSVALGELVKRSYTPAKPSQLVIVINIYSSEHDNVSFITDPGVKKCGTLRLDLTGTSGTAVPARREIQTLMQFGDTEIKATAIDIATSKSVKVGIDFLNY
# UniProt O43148, whole entry: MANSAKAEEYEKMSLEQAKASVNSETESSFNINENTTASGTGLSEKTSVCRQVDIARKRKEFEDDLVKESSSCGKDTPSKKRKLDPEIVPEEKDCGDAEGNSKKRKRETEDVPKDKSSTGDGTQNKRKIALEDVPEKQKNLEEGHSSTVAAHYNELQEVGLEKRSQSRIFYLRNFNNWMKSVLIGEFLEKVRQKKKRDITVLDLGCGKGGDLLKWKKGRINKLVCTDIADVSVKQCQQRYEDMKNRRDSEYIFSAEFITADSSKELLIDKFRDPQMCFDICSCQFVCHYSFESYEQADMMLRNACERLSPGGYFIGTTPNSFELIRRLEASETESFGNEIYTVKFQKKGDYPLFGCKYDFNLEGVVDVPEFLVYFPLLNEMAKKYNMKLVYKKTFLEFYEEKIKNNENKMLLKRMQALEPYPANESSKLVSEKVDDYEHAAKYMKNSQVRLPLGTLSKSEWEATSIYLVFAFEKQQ
# UniProt O14832: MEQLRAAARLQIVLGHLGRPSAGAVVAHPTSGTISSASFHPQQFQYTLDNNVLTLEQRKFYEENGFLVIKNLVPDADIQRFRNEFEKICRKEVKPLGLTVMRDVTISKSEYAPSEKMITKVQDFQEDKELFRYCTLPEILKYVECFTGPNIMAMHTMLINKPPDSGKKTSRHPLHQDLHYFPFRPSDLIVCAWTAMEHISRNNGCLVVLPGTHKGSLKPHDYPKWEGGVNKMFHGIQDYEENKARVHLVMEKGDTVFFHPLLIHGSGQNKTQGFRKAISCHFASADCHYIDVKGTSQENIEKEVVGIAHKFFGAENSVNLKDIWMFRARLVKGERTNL
# UniProt O15078: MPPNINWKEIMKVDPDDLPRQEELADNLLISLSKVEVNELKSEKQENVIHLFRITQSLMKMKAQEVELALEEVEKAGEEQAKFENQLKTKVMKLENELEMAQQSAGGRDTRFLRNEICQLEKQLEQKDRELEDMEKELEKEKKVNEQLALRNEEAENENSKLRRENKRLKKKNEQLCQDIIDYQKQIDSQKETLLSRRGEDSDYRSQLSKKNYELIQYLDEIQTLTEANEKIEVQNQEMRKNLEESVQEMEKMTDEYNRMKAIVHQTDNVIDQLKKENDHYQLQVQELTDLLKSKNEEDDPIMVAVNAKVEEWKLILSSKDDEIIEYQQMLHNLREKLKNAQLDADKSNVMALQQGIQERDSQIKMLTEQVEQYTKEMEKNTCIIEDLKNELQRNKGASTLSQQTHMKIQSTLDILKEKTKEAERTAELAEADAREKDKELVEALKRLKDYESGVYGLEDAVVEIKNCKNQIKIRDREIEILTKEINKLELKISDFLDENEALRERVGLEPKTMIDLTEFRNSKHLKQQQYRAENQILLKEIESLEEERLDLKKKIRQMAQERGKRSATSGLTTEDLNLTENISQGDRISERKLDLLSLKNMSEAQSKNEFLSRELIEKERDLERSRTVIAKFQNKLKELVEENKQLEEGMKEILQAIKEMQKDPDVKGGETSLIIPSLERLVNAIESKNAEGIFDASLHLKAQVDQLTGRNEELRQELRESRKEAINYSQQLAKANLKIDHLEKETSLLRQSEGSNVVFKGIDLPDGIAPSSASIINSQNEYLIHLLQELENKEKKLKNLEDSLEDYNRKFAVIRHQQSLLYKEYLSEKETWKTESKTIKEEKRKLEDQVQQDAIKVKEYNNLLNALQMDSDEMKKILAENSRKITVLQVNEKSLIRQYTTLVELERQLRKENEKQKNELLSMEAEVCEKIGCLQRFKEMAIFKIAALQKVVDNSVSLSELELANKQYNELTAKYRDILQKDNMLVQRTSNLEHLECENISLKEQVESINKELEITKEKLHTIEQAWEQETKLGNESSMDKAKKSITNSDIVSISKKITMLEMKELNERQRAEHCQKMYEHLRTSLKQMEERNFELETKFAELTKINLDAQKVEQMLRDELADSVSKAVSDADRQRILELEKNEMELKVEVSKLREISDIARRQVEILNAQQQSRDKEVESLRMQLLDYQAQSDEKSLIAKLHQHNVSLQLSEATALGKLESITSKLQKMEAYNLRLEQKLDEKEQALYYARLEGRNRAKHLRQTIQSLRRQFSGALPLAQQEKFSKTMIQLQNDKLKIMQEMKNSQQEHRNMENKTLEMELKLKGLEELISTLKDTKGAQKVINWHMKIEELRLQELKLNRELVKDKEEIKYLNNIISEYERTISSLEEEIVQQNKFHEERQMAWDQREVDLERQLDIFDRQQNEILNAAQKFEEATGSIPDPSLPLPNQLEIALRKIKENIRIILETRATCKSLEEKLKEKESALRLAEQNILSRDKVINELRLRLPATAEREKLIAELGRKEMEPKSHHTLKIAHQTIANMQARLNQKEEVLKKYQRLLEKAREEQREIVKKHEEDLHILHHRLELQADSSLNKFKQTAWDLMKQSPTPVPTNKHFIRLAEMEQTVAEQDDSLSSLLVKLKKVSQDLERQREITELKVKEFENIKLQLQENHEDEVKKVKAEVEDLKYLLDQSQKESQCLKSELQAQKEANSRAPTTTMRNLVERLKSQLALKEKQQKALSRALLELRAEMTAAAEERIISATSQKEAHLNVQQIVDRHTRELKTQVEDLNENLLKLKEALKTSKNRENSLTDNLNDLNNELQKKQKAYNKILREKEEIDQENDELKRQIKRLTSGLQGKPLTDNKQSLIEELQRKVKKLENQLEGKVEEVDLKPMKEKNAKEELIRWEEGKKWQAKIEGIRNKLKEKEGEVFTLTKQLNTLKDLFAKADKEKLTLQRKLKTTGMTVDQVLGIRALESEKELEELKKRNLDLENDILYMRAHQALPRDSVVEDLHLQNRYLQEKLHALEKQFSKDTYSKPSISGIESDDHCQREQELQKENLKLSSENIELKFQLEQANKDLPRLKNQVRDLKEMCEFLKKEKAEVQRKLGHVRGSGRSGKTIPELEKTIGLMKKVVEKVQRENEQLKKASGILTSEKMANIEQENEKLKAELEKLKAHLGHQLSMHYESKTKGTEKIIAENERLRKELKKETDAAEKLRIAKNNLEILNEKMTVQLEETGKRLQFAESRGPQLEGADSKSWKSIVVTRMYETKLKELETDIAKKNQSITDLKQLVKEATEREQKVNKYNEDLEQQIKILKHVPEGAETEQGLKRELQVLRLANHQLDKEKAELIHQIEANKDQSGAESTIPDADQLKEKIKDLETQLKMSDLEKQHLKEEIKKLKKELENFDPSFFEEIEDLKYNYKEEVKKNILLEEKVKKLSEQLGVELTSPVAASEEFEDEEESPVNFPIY
# UniProt O14879: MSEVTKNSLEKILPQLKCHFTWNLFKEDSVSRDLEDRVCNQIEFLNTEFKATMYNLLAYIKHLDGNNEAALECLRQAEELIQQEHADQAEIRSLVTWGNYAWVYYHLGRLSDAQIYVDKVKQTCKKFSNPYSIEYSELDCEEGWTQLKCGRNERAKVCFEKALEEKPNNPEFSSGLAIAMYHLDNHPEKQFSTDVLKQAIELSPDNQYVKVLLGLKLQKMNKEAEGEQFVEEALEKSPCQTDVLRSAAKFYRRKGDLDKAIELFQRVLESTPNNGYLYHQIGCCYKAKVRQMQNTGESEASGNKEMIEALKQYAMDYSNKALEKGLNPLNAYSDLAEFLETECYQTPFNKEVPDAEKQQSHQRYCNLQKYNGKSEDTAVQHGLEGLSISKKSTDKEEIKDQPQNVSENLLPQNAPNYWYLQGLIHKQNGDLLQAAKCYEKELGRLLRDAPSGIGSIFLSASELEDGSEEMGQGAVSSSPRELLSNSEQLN
# UniProt O14925: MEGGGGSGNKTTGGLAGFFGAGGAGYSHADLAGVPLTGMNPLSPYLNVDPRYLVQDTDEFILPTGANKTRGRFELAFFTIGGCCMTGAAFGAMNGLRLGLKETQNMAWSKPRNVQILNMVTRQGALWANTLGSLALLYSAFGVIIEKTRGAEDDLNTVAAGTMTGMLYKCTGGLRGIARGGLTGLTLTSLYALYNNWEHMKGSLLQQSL
# UniProt O15085: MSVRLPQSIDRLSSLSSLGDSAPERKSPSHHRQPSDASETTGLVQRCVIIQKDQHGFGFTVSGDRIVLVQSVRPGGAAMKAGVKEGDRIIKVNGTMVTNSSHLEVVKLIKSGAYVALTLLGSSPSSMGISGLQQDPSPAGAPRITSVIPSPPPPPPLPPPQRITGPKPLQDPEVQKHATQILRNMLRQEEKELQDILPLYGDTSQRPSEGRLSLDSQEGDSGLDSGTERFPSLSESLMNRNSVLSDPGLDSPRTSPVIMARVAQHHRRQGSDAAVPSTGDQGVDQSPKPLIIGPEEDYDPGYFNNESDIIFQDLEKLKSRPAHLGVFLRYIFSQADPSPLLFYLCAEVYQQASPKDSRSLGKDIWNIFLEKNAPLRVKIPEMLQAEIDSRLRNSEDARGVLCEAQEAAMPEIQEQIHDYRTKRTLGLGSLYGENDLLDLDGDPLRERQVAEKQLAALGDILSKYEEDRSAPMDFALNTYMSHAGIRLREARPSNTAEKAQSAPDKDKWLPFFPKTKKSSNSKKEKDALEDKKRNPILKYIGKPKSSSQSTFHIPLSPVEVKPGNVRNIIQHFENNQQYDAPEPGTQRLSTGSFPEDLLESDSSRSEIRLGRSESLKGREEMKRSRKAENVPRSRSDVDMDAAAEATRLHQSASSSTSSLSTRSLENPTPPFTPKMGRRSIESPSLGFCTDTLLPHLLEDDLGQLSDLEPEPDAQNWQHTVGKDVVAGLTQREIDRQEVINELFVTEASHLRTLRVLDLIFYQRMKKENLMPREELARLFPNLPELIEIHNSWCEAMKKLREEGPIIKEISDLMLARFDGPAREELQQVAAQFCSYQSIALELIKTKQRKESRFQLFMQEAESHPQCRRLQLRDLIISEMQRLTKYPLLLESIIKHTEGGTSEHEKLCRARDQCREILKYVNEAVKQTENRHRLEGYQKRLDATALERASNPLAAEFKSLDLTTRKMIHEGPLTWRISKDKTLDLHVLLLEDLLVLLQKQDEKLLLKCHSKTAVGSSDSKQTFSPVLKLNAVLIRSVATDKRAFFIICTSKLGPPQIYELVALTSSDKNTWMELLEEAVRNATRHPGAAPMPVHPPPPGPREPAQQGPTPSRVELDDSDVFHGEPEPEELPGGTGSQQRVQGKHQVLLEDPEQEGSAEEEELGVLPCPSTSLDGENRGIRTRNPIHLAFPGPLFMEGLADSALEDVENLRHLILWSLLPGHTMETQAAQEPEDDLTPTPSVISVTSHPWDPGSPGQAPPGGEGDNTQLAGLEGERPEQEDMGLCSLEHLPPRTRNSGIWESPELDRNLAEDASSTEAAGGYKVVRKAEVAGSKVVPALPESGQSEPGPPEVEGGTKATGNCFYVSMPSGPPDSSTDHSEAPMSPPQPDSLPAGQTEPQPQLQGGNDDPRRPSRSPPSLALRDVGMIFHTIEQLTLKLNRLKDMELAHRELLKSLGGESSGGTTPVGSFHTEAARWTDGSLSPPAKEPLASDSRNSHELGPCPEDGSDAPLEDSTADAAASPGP
# UniProt O00154: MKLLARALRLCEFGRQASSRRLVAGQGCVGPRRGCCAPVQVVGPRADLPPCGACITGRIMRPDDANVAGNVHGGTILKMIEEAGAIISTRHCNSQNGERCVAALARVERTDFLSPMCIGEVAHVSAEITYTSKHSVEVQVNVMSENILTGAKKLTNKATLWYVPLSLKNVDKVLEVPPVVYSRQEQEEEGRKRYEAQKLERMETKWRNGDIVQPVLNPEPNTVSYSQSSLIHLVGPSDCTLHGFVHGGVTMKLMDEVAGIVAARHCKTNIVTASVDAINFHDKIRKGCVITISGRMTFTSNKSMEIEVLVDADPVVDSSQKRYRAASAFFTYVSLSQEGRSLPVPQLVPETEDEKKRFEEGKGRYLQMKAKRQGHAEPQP
# This is one part of the list. This is a noisy data set.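 Many melting curves are irregular; where none melted, Tm was taken as 64 °C.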
# Compound: CCc1cnccc1C(=O)Nc1cc2c(cc1F)NC(=O)CC2
# Experiment: melting temperature shift (DMSO Tm minus MBE1-treated Tm) in cellular thermal proteome profiling; higher = less thermal stabilization by MBE1 (negative = stabilized by MBE1)
# Details: A375
target,measurement,setting,value
NME4 (UniProt O00746),melting temperature shift,MBE1 concentration: 100 nM,-1.11 °C
same,melting temperature shift,MBE1 concentration: 1 uM,-2.65 °C
SPTLC1 (UniProt O15269),melting temperature shift,MBE1 concentration: 100 nM,0.0244 °C
same,melting temperature shift,MBE1 concentration: 1 uM,0.916 °C
HGS (UniProt O14964),melting temperature shift,MBE1 concentration: 100 nM,0.733 °C
same,melting temperature shift,MBE1 concentration: 1 uM,0.385 °C
KPNA4 (UniProt O00629),melting temperature shift,MBE1 concentration: 100 nM,-0.411 °C
same,melting temperature shift,MBE1 concentration: 1 uM,0.757 °C
SYNJ2 (UniProt O15056),melting temperature shift,MBE1 concentration: 100 nM,-0.00941 °C
same,melting temperature shift,MBE1 concentration: 1 uM,-0.24 °C
UniProt O00522,melting temperature shift,MBE1 concentration: 100 nM,-0.532 °C
same,melting temperature shift,MBE1 concentration: 1 uM,-0.551 °C
TRAFD1 (UniProt O14545),melting temperature shift,MBE1 concentration: 100 nM,-2.08 °C
same,melting temperature shift,MBE1 concentration: 1 uM,0.141 °C
HSPA12A (UniProt O43301),melting temperature shift,MBE1 concentration: 100 nM,-0.311 °C
same,melting temperature shift,MBE1 concentration: 1 uM,0.385 °C
TOR1A (UniProt O14656),melting temperature shift,MBE1 concentration: 100 nM,-1.03 °C
same,melting temperature shift,MBE1 concentration: 1 uM,-0.664 °C
ARPC5 (UniProt O15511),melting temperature shift,MBE1 concentration: 100 nM,-2.67 °C
same,melting temperature shift,MBE1 concentration: 1 uM,-0.794 °C
NUDT19 (UniProt A8MXV4),melting temperature shift,MBE1 concentration: 100 nM,-0.134 °C
same,melting temperature shift,MBE1 concentration: 1 uM,0.288 °C
RNMT (UniProt O43148),melting temperature shift,MBE1 concentration: 100 nM,-1.61 °C
same,melting temperature shift,MBE1 concentration: 1 uM,-0.586 °C
UniProt O15061,melting temperature shift,MBE1 concentration: 100 nM,-0.966 °C
same,melting temperature shift,MBE1 concentration: 1 uM,-0.295 °C
PHYH (UniProt O14832),melting temperature shift,MBE1 concentration: 100 nM,-0.244 °C
same,melting temperature shift,MBE1 concentration: 1 uM,0.171 °C
E2F3 (UniProt O00716),melting temperature shift,MBE1 concentration: 100 nM,-1.5 °C
same,melting temperature shift,MBE1 concentration: 1 uM,0.611 °C
MAP3K7 (UniProt O43318),melting temperature shift,MBE1 concentration: 100 nM,0.122 °C
same,melting temperature shift,MBE1 concentration: 1 uM,-0.141 °C
DCTN6 (UniProt O00399),melting temperature shift,MBE1 concentration: 100 nM,-3.24 °C
same,melting temperature shift,MBE1 concentration: 1 uM,-3.21 °C
EML1 (UniProt O00423),melting temperature shift,MBE1 concentration: 100 nM,0.91 °C
same,melting temperature shift,MBE1 concentration: 1 uM,0.107 °C
NDUFAB1 (UniProt O14561),melting temperature shift,MBE1 concentration: 100 nM,-1.27 °C
same,melting temperature shift,MBE1 concentration: 1 uM,-1.98 °C
CEP290 (UniProt O15078),melting temperature shift,MBE1 concentration: 100 nM,-1.37 °C
same,melting temperature shift,MBE1 concentration: 1 uM,-0.402 °C
PLOD2 (UniProt O00469),melting temperature shift,MBE1 concentration: 100 nM,-0.731 °C
same,melting temperature shift,MBE1 concentration: 1 uM,0.165 °C
UniProt O15054,melting temperature shift,MBE1 concentration: 100 nM,-2.45 °C
same,melting temperature shift,MBE1 concentration: 1 uM,1.81 °C
IFIT3 (UniProt O14879),melting temperature shift,MBE1 concentration: 100 nM,0 °C
same,melting temperature shift,MBE1 concentration: 1 uM,0.428 °C
NPC1 (UniProt O15118),melting temperature shift,MBE1 concentration: 100 nM,-1.72 °C
same,melting temperature shift,MBE1 concentration: 1 uM,1.85 °C
IPO8 (UniProt O15397),melting temperature shift,MBE1 concentration: 100 nM,-0.621 °C
same,melting temperature shift,MBE1 concentration: 1 uM,-0.682 °C
UniProt A6NCE7,melting temperature shift,MBE1 concentration: 100 nM,-0.0488 °C
same,melting temperature shift,MBE1 concentration: 1 uM,2.28 °C
PLXNB2 (UniProt O15031),melting temperature shift,MBE1 concentration: 100 nM,-0.865 °C
same,melting temperature shift,MBE1 concentration: 1 uM,0.336 °C
TIMM23 (UniProt O14925),melting temperature shift,MBE1 concentration: 100 nM,-3.79 °C
same,melting temperature shift,MBE1 concentration: 1 uM,-1.05 °C
UniProt O15321,melting temperature shift,MBE1 concentration: 100 nM,-0.202 °C
same,melting temperature shift,MBE1 concentration: 1 uM,-1.21 °C
ARHGEF11 (UniProt O15085),melting temperature shift,MBE1 concentration: 100 nM,-0.414 °C
same,melting temperature shift,MBE1 concentration: 1 uM,0.0047 °C
PFAS (UniProt O15067),melting temperature shift,MBE1 concentration: 100 nM,1.4 °C
same,melting temperature shift,MBE1 concentration: 1 uM,1.18 °C
SDCBP (UniProt O00560),melting temperature shift,MBE1 concentration: 100 nM,0.999 °C
same,melting temperature shift,MBE1 concentration: 1 uM,0.434 °C
ZZEF1 (UniProt O43149),melting temperature shift,MBE1 concentration: 100 nM,0.122 °C
same,melting temperature shift,MBE1 concentration: 1 uM,1.04 °C
ACOT7 (UniProt O00154),melting temperature shift,MBE1 concentration: 100 nM,-1.48 °C
same,melting temperature shift,MBE1 concentration: 1 uM,-0.841 °C

# Reprinted at random: four records from the list
target,measurement,setting,value
CEP290 (UniProt O15078),melting temperature shift,MBE1 concentration: 100 nM,-1.37 °C
SPTLC1 (UniProt O15269),melting temperature shift,MBE1 concentration: 1 uM,0.916 °C
CEP290 (UniProt O15078),melting temperature shift,MBE1 concentration: 1 uM,-0.402 °C
MAP3K7 (UniProt O43318),melting temperature shift,MBE1 concentration: 1 uM,-0.141 °C
